Data: the supplement of paper PMC10849652
The other results are listed elsewhere or left out.

By UniProt entry, the sequences of proteins in these tests, tags left out. Where a name states a change or a piece, a line headed by the entry shows the natural chain unless it says otherwise.
UniProt P24863: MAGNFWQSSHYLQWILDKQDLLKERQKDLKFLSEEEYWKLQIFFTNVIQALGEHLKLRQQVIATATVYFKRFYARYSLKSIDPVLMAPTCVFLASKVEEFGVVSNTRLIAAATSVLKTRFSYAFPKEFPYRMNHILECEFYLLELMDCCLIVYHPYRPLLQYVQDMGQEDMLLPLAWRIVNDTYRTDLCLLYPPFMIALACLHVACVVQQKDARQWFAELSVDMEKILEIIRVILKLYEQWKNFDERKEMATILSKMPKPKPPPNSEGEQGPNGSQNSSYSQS
UniProt A2RUB6: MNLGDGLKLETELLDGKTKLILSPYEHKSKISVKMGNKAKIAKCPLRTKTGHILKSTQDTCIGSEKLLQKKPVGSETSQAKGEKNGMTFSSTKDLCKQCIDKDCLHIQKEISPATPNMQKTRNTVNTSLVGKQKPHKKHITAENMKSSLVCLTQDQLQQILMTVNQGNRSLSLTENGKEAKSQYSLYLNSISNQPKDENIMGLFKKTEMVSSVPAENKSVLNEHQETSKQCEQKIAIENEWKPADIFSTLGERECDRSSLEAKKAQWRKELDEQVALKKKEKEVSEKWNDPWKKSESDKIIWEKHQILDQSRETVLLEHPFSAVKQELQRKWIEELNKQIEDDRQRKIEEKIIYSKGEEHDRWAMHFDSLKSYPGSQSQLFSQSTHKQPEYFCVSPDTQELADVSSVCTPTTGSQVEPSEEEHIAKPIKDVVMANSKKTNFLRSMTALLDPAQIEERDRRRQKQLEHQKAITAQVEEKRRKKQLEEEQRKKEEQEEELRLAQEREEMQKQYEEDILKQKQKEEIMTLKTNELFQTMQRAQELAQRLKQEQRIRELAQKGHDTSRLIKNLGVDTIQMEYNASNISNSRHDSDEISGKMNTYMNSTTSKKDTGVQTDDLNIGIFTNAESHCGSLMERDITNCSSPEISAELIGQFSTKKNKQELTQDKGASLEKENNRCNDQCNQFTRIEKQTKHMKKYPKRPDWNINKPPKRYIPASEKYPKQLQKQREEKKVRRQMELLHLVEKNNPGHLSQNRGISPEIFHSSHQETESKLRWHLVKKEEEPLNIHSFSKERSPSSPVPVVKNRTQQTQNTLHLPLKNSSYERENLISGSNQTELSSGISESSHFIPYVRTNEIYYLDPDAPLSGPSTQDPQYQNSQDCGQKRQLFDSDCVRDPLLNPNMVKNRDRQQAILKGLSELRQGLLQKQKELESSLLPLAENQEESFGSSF
UniProt P15529: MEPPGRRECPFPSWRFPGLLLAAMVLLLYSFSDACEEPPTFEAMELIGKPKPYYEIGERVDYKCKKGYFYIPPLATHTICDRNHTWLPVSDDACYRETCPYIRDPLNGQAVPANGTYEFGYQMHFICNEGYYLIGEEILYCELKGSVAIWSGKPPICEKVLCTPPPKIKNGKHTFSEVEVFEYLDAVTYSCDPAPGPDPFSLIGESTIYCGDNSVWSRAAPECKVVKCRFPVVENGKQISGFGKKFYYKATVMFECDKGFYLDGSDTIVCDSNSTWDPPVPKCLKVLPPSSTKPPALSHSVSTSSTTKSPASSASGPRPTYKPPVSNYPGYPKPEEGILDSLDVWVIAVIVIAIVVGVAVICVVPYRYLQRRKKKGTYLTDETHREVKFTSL
UniProt P30307: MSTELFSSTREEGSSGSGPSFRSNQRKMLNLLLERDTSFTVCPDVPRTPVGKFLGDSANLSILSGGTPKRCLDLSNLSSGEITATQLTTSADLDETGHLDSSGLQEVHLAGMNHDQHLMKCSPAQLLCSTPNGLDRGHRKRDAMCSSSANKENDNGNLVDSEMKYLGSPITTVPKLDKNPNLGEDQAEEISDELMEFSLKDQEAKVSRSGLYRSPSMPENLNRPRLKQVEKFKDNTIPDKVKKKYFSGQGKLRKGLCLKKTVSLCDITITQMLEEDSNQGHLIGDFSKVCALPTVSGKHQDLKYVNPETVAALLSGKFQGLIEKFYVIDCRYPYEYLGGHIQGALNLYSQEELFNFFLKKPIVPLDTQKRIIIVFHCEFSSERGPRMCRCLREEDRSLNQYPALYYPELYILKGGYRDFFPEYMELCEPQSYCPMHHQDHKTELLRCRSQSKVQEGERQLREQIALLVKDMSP
UniProt P24864, whole entry, looked up: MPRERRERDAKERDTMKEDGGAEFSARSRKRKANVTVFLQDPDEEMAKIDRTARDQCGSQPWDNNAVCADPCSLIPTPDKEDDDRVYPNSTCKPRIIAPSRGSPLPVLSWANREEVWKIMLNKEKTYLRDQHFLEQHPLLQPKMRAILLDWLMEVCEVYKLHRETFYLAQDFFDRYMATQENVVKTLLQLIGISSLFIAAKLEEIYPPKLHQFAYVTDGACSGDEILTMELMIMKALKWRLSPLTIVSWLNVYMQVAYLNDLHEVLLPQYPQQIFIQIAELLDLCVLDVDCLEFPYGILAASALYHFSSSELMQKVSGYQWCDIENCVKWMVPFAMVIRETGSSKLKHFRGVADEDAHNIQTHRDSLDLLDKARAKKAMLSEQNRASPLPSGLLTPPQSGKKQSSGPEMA
UniProt Q96S94: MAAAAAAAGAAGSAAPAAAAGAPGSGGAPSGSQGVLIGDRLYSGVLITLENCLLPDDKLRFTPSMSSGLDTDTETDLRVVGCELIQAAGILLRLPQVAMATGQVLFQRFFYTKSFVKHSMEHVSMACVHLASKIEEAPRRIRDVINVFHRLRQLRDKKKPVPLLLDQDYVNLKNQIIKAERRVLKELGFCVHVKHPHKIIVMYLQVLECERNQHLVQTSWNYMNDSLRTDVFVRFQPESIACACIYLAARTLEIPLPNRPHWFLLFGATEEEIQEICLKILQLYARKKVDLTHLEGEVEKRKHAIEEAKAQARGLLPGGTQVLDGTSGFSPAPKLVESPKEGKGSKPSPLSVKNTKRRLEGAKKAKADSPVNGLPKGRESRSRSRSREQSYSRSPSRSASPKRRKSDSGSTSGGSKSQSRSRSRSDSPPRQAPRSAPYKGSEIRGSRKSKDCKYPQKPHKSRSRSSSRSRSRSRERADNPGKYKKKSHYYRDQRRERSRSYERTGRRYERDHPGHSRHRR
UniProt O43439: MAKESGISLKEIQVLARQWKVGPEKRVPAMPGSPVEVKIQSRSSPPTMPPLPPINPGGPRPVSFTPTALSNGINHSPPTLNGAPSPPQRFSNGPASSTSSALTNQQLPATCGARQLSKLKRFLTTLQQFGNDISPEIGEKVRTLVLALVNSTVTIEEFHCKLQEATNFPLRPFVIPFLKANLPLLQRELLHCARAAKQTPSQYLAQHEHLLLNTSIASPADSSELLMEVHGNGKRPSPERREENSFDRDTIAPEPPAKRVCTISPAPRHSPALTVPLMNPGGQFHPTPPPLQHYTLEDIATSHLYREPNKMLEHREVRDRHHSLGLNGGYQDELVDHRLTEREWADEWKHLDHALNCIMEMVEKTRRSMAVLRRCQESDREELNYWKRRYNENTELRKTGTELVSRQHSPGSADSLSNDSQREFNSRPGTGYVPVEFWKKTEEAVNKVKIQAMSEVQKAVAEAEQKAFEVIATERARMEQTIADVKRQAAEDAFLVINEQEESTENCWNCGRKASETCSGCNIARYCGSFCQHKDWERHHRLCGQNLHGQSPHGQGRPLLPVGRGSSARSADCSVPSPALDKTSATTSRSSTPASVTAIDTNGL
UniProt P27701: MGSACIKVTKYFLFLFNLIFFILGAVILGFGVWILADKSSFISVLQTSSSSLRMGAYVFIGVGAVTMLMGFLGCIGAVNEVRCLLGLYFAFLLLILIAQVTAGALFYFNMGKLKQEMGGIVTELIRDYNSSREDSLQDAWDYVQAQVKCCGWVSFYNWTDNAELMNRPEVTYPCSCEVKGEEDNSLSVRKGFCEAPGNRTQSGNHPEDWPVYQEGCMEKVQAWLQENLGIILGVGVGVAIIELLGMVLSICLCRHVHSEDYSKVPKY
UniProt Q12834, whole entry, looked up: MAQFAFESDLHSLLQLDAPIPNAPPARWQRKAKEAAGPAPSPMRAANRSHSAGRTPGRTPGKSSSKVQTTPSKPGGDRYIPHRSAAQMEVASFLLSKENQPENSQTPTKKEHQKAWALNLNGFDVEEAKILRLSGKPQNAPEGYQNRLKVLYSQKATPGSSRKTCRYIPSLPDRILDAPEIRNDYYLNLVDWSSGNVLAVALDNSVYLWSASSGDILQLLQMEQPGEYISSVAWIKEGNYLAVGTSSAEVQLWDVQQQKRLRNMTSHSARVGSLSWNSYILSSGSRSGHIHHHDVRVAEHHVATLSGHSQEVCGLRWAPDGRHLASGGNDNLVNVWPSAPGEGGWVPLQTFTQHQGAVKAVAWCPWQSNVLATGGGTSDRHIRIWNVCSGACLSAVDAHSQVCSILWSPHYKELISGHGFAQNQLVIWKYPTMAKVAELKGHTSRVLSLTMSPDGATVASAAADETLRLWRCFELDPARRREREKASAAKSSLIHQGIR
UniProt P16070: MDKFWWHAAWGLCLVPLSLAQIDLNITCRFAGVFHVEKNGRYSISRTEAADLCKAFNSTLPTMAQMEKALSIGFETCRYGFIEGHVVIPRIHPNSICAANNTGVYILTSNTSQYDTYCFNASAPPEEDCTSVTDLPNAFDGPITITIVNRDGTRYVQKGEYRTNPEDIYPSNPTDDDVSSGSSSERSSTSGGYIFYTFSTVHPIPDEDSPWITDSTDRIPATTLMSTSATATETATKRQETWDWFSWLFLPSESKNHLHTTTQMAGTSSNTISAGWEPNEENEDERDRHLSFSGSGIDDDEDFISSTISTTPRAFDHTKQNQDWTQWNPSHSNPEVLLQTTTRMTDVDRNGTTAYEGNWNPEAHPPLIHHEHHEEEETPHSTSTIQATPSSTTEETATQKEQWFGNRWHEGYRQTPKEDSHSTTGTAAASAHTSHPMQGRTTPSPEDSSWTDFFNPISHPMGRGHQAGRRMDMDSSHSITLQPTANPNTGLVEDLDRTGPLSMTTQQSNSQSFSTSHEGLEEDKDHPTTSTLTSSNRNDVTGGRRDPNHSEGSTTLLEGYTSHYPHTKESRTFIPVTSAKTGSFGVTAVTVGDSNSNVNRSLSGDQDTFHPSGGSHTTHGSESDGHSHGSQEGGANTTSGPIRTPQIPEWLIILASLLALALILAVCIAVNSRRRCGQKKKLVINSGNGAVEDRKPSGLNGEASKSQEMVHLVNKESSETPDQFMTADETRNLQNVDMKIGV
UniProt O96020, whole entry, looked up: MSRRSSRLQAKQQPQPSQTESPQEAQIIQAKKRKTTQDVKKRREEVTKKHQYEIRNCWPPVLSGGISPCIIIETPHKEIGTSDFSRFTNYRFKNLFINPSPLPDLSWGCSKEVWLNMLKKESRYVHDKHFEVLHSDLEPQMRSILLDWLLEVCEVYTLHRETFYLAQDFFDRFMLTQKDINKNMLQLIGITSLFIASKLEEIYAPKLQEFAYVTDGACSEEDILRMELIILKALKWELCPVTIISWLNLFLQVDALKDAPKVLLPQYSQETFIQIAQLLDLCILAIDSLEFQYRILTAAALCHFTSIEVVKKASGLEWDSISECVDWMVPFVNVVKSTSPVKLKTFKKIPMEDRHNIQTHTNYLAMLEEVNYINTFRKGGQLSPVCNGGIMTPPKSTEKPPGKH
UniProt P11049: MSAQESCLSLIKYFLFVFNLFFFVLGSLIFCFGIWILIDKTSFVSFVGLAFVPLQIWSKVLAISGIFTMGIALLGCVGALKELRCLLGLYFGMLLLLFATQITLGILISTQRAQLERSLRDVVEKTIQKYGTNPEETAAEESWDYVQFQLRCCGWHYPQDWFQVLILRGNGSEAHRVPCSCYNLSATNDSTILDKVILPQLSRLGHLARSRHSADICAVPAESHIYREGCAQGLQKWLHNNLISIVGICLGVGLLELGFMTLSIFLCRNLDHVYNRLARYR
UniProt Q9BUN5: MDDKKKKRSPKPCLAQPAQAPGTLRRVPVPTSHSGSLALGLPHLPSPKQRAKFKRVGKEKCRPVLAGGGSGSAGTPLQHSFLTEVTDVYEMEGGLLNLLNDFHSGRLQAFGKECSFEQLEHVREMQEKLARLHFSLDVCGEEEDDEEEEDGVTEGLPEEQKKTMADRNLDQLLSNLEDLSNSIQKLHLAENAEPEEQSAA
UniProt Q92526, whole entry, looked up: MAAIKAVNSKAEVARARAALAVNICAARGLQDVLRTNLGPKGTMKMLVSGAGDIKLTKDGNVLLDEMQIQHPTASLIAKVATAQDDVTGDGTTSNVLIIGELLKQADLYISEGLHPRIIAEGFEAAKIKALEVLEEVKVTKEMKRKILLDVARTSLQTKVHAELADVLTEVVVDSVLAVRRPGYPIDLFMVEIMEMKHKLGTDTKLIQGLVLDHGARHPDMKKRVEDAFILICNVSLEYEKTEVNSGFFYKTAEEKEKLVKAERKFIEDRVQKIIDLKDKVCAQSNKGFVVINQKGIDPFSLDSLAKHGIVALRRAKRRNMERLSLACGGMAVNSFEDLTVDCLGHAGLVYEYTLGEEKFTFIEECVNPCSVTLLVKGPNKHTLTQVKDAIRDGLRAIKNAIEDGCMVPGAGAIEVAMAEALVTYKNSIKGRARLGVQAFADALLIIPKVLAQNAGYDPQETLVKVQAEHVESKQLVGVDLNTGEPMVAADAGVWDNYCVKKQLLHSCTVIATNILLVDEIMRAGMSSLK

Legend:
Assay in all cases: log2 fold change, soluble protein after heating vs DMSO (PISA); higher = thermal stabilisation; K562 cells, 10 uM, 30 min; active = over 0.2 and 3.5 SD of the protein, either way, in both replicates (recomputed)
epoxomicin = compound: CC[C@H](C)[C@@H](C(=O)N[C@@H]([C@@H](C)O)C(=O)N[C@@H](CC(C)C)C(=O)[C@]1(CO1)C)NC(=O)[C@H]([C@@H](C)CC)N(C)C(=O)C [epoxomicin]
Outline: (§1)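 Quantification of soluble protein used TMTpro 16plex LC-MS/MS, with channel sums equalised. Samples were the supernatant after 21,000xg for 90 min of pooled aliquots from K562 cells (2×10^6 cells/mL) treated with 10 μM compound for 30 min, heated for 3 min over 48°C-58°C, and extracted in PBS with 0.5% NP-40 at 4°C. Values, from duplicates, describe thermal stability against control samples on a log2 fold-change scale.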

[1] = compound: CCn1cc(-c2ccnc3[nH]c(-c4cccc(CN(C)C)c4)cc23)c(-c2ccc(NC(=O)N(C)C)cc2)n1
Outline: as §1

[2] = compound: CN(C)CC(=O)Nc1ccc2[nH]c(=O)c3ccccc3c2c1
Outline: as §1

[3] = compound: CN1C2=C(C3=C1C(=O)N(N=C3)CC4=CC(=CC=C4)N)SC(=C2)S(=O)C
Outline: as §1

[4] = compound: CN1CCC(CNc2ccc3ncc(-c4cccc(OC(F)(F)F)c4)n3n2)CC1
Outline: as §1

saracatinib = compound: CN1CCN(CCOc2cc(OC3CCOCC3)c3c(Nc4c(Cl)ccc5c4OCO5)ncnc3c2)CC1 [saracatinib]
Outline: as §1

sotrastaurin = compound: CN1CCN(c2nc(C3=C(c4c[nH]c5ccccc45)C(=O)NC3=O)c3ccccc3n2)CC1 [sotrastaurin]
Outline: as §1

alvocidib = compound: CN1CC[C@H](c2c(O)cc(O)c3c(=O)cc(-c4ccccc4Cl)oc23)[C@H](O)C1 [alvocidib]
Outline: as §1

[5] = compound: CNC(=O)C1=CC=CC=C1NC2=NC(=NC=C2Cl)NC3=C(C=C(C=C3)N4CCOCC4)OC
Outline: as §1

defactinib = compound: CNC(=O)c1ccc(Nc2ncc(C(F)(F)F)c(NCc3nccnc3N(C)S(C)(=O)=O)n2)cc1 [defactinib]
Outline: as §1

[6] = compound: CNc1nc(-c2ccc3c(N)n[nH]c3c2)cc(N2C[C@@H](C(=O)NC3CCCCC3)CC[C@H]2C)n1
Outline: as §1

[7] = compound: COC(=O)[C@H](CCSC)NC(=O)C1=C(C=C(C=C1)NC[C@H](CS)N)C2=CC=CC=C2
Outline: as §1

[8] = compound: CC[C@H](C)N1C=C(C2=C(C=C(C=C21)C3=CN=C(C=C3)N4CCNCC4)C(=O)NCC5=C(C=C(NC5=O)C)C)C
Outline: as §1

rosiglitazone = compound: CN(CCOC1=CC=C(C=C1)C[C@H]2C(=O)NC(=O)S2)C3=CC=CC=N3 (racemic) [rosiglitazone]
Outline: as §1

Tubastatin A = compound: CN1CCc2c(c3ccccc3n2Cc2ccc(C(=O)NO)cc2)C1 [Tubastatin A]
Outline: as §1

volasertib = compound: CC[C@@H]1C(=O)N(C)c2cnc(Nc3ccc(C(=O)N[C@H]4CC[C@H](N5CCN(CC6CC6)CC5)CC4)cc3OC)nc2N1C(C)C [volasertib]
Outline: as §1

[9] = compound: CCn1c(C(=O)N(C2CC2)C2CC2)cc2c3c(ncn3C)c(Nc3cc(C)n(C)n3)nc21
Outline: as §1

Measured: log2 fold change

CCNC (UniProt P24863)
active: [4] 0.4 | alvocidib 0.6
inactive: epoxomicin 0.035 | [1] -0.178 | [2] -0.011 | [3] 0.032 | saracatinib 0.057 | sotrastaurin -0.057 | [5] 0.008 | defactinib -0.047 | [6] -0.028 | [7] 0.001

CCDC66 (UniProt A2RUB6)
inactive: [8] 0.15 | epoxomicin 0.02 | [1] 0.04 | [4] 0.038

CD46 (UniProt P15529)
inactive: [2] 0.11 | rosiglitazone -0.08 | [3] -0.062 | saracatinib -0.038 | sotrastaurin -0.017 | defactinib 0.108 | [6] 0.08 | [7] -0.115

CDC25C (UniProt P30307)
inactive: [8] -0.065 | epoxomicin 0.111 | [3] 0.07 | saracatinib -0.109 | alvocidib 0.025 | Tubastatin A -0.068 | [6] -0.045

CCNE1 (UniProt P24864)
inactive: volasertib -0.257 | epoxomicin 0.155 | [9] 0.002 | [1] -0.07 | [2] -0.011 | rosiglitazone -0.176 | [3] -0.02 | [4] 0.166 | saracatinib 0.024 | Tubastatin A 0.091 | [5] -0.259 | defactinib -0.014 | [6] -0.127 | [7] 0.116

CCNL2 (UniProt Q96S94)
inactive: [8] 0.23 | epoxomicin 0.261 | sotrastaurin 0

Two consecutive records already listed, for reference:
CDC25C (UniProt P30307)
inactive: [8] -0.065 | epoxomicin 0.111 | [3] 0.07 | saracatinib -0.109 | alvocidib 0.025 | Tubastatin A -0.068 | [6] -0.045

CCNE1 (UniProt P24864)
inactive: volasertib -0.257 | epoxomicin 0.155 | [9] 0.002 | [1] -0.07 | [2] -0.011 | rosiglitazone -0.176 | [3] -0.02 | [4] 0.166 | saracatinib 0.024 | Tubastatin A 0.091 | [5] -0.259 | defactinib -0.014 | [6] -0.127 | [7] 0.116

Going on with the list:

CBFA2T2 isoform 4 (UniProt O43439)
inactive: [9] -0.046 | [1] -0.178 | rosiglitazone -0.306 | [4] 0.103 | [5] 0.001

CD82 (UniProt P27701)
inactive: [8] 0.038 | epoxomicin 0.136 | [9] -0.084 | [1] -0.11 | rosiglitazone -0.057 | [4] 0.131 | sotrastaurin -0.024 | [5] -0.058

CCDC187, A0A1W2PQX5
inactive: [8] 0.012 | epoxomicin 0.085 | [1] -0.03 | [4] -0.029

CCND1 (UniProt P24385)
inactive: sotrastaurin -0.127

CAV1 (UniProt F8WDM7)
inactive: alvocidib 0.055

CD2BP2 (UniProt O95400)
inactive: volasertib -0.118 | epoxomicin -0.025 | [9] 0.093 | [2] 0.064 | rosiglitazone -0.111 | [3] -0.076 | saracatinib 0.11 | Tubastatin A -0.029 | [5] -0.008 | defactinib -0.33 | [6] -0.172 | [7] 0.214

CDC20 (UniProt Q12834)
inactive: volasertib -0.12 | epoxomicin 0.132 | [9] 0.078 | [1] -0.025 | [2] -0.128 | rosiglitazone 0.02 | [3] -0.055 | [4] -0.079 | saracatinib -0.076 | sotrastaurin -0.052 | alvocidib -0.067 | Tubastatin A 0.124 | [5] 0.042 | defactinib -0.078 | [6] 0.033 | [7] 0.002

CD84 (UniProt Q9UIB8)
inactive: epoxomicin -0.009 | [3] -0.077 | saracatinib -0.012 | sotrastaurin -0.144 | Tubastatin A -0.039 | [5] -0.119
active: [6] 0.56

CCDC158 (UniProt Q5M9N0)
inactive: volasertib 0.16 | [8] 0.02 | epoxomicin -0.175 | [9] 0.102 | [1] 0.06 | [2] -0.149 | rosiglitazone -0.03 | [3] 0.024 | [4] 0.074 | saracatinib 0.034 | sotrastaurin 0.087 | alvocidib 0.373 | [5] 0.081 | defactinib 0.167 | [6] 0.007 | [7] 0.098

CBX3 (UniProt B8ZZ43)
inactive: rosiglitazone -0.184 | [3] 0.158 | saracatinib -0.14 | [6] 0.119

CCNL1 (UniProt Q9UK58)
inactive: [5] -0.179

CD44 (UniProt P16070)
inactive: volasertib -0.004 | [2] 0.021 | [3] -0.053 | saracatinib 0.036 | sotrastaurin -0.044 | alvocidib -0.09 | Tubastatin A 0.146 | defactinib 0.057 | [6] -0.013 | [7] -0.069

CDC27 (UniProt G5EA36)
inactive: volasertib -0.152 | epoxomicin -0.069 | [9] 0.061 | alvocidib 0 | Tubastatin A 0.13 | [5] -0.036

CCNE2 (UniProt O96020)
inactive: [9] 0.061 | [3] 0.29 | saracatinib 0.218 | [5] -0.329 | [6] -0.098

CD37 (UniProt P11049)
inactive: volasertib 0.371 | [8] 0.024 | [1] 0 | [2] 0.022 | [3] 0.024 | [4] 0.167 | saracatinib 0.048 | Tubastatin A -0.145 | defactinib -0.171 | [6] -0.084 | [7] 0.284

CCDC28B (UniProt Q9BUN5)
inactive: volasertib 0.039 | [9] -0.061 | [1] -0.01 | [2] 0.105 | rosiglitazone -0.067 | [4] 0.005 | sotrastaurin 0.162 | Tubastatin A 0.02 | [5] -0.101 | defactinib 0.071 | [7] 0.15

CCT6B isoform 3 (UniProt Q92526)
inactive: volasertib -0.295 | [9] -0.163 | [2] 0.016 | [3] 0.153 | saracatinib -0.07 | sotrastaurin 0.261 | alvocidib 0.18 | Tubastatin A 0.213 | [5] -0.256 | defactinib -0.008 | [6] 0.191 | [7] -0.109
